Test results reported in patent publication US8008354B2, “Death receptor sensitizing compounds and methods of use therefor” (Burnham Institute for Medical Research, priority 2006, dated 2011).
Some results were stated once for a whole list of compounds, not compound by compound.

System: PPC-1 cells
Experiment: MTT cell viability of PPC-1 cells treated with compound with or without CH-11 anti-FAS antibody
Format: cell-based
Conditions: combined with CH-11, median-dose combination index (Chou, 1991); synergy
Method: FIGS. 2A-C. […] PPC-1 cells (1×10^4) were seeded in 96 well plates. The next day, cells were treated with increasing concentrations of the sensitizing compounds with (open squares) and without (closed squares) CH-11 antibody (100 ng/mL). Cell viability was measured 24 hours later by MTT assay. Cell viability is expressed as a mean percentage of untreated cells+SD (n=3). The Chembridge identification numbers of the compounds are provided.
High throughput screening. […] PPC-1 cells (1×10^4) were seeded overnight into 96 well, flat-bottom plates (Costar, Cambridge, Mass.) in 100 μL of medium containing 2.5% FCS. […] CH-11 antibody (100 ng/mL) was then added, and the cells were incubated for 24 hours before assessing cell viability by a 3-(4,5-Dimethylthiazol-2-yl)-2,5-diphenyltetrazolium Bromide (MTT) dye reduction assay (Sigma).
Cell death assays. […] Absorbance readings were plotted against a standard curve to derive the corresponding cell number, and cell viability was expressed as a percentage relative to untreated cells.

O=C(Cc1ccc(Cl)cc1)N1CCN(C/C=C/c2ccccc2)CC1 [compound 5703229, 1-[(4-chlorophenyl)acetyl]-4-[(2e)3-phenylprop-2-enyl]piperazine]
combination Index (CI): < 1
